The list shows a part of the results.

By UniProt entry, the sequences of proteins in these tests, tags left out. Where a name states a change or a piece, a line headed by the entry shows the natural chain unless it says otherwise.
UniProt O60243: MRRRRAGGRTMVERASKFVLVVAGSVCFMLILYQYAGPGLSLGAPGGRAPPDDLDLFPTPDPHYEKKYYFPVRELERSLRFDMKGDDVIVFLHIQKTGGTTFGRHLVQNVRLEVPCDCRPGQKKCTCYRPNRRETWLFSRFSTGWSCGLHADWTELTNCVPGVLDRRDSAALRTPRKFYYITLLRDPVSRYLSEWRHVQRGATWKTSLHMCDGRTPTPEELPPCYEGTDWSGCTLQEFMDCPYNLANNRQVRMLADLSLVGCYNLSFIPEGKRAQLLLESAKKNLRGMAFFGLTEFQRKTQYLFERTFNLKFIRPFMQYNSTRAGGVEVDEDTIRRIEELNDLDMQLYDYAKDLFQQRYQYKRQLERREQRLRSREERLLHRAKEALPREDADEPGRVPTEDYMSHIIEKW
UniProt Q9Y241: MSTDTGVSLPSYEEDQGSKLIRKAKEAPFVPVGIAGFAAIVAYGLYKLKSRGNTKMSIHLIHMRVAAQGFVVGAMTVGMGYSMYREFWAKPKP
UniProt Q14469: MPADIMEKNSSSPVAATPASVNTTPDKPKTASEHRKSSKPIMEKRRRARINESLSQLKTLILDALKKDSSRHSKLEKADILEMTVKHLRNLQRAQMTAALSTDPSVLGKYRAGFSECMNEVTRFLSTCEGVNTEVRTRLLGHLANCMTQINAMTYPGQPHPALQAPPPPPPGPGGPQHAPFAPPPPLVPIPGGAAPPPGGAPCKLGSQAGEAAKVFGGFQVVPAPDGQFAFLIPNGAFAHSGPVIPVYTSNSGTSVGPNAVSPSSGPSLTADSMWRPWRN
UniProt Q9NRZ9: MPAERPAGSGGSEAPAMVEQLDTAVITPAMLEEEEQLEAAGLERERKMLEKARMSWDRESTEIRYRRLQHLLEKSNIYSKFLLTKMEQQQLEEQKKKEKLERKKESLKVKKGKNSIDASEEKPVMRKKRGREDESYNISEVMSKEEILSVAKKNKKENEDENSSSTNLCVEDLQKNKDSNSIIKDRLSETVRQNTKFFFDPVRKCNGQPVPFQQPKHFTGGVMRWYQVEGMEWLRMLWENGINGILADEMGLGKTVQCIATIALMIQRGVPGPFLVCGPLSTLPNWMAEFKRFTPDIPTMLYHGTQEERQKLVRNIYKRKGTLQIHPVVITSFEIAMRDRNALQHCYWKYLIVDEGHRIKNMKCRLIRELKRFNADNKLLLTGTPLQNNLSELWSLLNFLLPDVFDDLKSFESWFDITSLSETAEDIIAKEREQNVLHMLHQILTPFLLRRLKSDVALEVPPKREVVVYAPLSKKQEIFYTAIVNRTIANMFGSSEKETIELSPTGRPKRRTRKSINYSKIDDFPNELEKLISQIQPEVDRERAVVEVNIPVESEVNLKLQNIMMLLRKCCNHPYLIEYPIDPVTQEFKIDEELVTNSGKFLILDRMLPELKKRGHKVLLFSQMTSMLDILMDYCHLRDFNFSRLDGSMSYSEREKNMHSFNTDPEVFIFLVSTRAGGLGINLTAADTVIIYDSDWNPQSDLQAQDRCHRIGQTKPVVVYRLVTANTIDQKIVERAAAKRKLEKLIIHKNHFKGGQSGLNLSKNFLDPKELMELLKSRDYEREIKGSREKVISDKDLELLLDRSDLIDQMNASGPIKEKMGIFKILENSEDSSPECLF
UniProt Q12766: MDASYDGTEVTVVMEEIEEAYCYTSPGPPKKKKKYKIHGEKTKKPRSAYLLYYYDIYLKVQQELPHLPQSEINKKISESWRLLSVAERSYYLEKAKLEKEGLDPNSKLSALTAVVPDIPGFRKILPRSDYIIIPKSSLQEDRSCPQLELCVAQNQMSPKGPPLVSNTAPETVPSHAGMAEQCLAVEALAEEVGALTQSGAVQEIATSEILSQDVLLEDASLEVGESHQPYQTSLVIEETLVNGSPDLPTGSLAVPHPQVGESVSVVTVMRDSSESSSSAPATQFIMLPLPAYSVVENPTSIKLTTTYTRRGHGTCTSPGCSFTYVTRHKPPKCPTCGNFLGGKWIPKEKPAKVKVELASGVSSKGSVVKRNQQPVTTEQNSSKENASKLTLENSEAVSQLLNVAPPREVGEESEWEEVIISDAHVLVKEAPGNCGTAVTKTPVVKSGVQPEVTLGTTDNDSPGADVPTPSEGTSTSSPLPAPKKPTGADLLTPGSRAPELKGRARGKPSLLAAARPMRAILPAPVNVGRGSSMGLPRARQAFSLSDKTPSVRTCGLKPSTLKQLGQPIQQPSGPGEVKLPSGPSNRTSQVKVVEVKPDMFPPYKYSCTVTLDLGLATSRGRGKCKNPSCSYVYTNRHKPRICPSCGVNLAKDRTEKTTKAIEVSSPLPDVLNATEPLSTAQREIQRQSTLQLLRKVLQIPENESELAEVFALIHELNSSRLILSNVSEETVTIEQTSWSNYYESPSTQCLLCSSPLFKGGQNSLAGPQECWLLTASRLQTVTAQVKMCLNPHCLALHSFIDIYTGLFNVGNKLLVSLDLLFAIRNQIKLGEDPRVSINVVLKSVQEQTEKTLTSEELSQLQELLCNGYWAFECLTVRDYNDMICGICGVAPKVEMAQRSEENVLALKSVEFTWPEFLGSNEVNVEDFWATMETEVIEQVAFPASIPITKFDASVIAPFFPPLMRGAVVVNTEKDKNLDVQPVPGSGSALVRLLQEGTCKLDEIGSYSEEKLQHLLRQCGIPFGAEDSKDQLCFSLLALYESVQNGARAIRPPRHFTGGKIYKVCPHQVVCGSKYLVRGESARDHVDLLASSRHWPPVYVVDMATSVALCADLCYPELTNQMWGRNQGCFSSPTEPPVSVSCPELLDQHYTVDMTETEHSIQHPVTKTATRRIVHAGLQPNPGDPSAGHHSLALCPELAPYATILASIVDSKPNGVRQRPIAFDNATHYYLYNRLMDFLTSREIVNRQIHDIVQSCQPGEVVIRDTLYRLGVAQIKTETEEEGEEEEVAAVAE
UniProt Q5SSJ5: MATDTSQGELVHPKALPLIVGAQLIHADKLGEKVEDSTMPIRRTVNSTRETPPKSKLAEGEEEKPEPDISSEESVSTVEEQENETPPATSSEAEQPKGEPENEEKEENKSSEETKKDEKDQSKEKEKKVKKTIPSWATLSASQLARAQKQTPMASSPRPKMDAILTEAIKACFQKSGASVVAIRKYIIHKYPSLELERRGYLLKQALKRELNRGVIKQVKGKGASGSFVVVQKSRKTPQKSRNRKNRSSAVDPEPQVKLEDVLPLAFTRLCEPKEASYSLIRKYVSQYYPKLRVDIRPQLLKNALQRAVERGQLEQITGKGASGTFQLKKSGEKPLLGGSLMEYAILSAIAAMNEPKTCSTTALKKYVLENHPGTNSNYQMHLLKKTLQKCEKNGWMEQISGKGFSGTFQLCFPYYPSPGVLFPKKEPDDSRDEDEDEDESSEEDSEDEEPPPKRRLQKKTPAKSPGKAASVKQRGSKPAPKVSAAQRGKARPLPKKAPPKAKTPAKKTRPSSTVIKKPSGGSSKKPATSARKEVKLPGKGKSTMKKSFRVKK
UniProt Q15011: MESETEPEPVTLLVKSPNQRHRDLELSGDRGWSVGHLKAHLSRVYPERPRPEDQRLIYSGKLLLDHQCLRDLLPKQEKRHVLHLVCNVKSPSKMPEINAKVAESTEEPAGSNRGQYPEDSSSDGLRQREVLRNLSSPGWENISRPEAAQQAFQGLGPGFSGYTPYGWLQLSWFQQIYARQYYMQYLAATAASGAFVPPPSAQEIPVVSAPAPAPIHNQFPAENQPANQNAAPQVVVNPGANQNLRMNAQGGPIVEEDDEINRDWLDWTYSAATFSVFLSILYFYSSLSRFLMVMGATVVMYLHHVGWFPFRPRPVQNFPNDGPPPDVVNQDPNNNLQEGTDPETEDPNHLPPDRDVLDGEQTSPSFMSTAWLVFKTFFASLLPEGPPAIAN
UniProt Q96MH2: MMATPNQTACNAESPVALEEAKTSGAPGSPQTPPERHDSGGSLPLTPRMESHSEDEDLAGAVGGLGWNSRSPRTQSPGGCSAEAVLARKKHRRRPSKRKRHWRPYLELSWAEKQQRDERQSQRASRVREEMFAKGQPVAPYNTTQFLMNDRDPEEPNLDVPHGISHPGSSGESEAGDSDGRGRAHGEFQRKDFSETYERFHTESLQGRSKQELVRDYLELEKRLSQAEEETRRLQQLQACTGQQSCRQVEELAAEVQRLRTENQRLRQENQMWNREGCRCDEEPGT
UniProt P13747, whole entry, looked up: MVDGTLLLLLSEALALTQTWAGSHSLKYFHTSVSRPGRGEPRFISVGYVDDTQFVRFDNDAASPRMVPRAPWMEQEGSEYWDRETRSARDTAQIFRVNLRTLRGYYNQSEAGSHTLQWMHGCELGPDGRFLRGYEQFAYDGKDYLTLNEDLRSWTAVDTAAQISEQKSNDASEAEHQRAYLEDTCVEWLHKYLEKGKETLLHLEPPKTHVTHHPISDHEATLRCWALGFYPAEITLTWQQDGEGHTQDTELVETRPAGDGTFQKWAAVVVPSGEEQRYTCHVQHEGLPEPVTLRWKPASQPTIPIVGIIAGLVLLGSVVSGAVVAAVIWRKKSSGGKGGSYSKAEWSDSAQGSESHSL

The record followed here is the supplement of paper PMC10849652.

Experiment in all cases: log2 fold change, soluble protein after heating vs DMSO (PISA); higher = thermal stabilisation; K562 lysate, 10 uM; active = over 0.2 and 3.5 SD of the protein, either way, in both replicates (recomputed)
Compound in experiment [1]: O=C(CCCCCCC(=O)Nc1ccccc1)NO [vorinostat]
Summed up:
(§1)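 Thermal stability, expressed as log-two fold change relative to solvent controls, is given from duplicates. Crude K562 extract in PBS pH 7.4 with 1 mM MgCl2, at 1 mg/mL protein, was treated with 10 μM compound for 30 min and heated in aliquots for 3 min across 48°C-58°C. After pooling, adjustment to 0.5% NP-40 at 4°C and centrifugation at 21,000xg for 90 min, supernatant protein was measured by TMTpro 16plex LC-MS/MS with channel sums equalised.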

Compound in experiment [2]: O=C(O)c1ccc2c(c1)nc(Nc1cccc(Cl)c1)c1ccncc12 [silmitasertib]
Summed up:
as §1

Compound in experiment [3]: c1cn2cc(-c3ccc4cn[nH]c4c3)nc(Nc3ccc(N4CCOCC4)cc3)c2n1 [entospletinib]
Put shortly:
as §1

Compound in experiment [4]: O=C1NC(=O)C(c2cnc3ccccn23)=C1c1cn2c3c(cc(F)cc13)CN(C(=O)N1CCCCC1)CC2
Put shortly: as §1

Compound in experiment [5]: NCC(=O)Nc1ccc(-n2nc(C(F)(F)F)cc2-c2ccc3c(ccc4ccccc43)c2)cc1
Summed up: as §1

As to HNRNPUL1 (UniProt M0R247), the log2 fold change in experiment [1] is inactive: 0.197; in experiment [2], inactive: -0.037.
The corresponding values for HS6ST1 (UniProt O60243) are inactive: -0.025 and inactive: 0.203.
On to HIGD1A isoform 2 (UniProt Q9Y241), for which the log2 fold change was inactive: 0.064 in experiment [1] and inactive: 0.006 in experiment [2].
For HES1 (UniProt Q14469), the log2 fold change in experiment [1] was inactive: 0.046; in experiment [2], inactive: 0.18; in experiment [3], inactive: 0.05.
For HNRNPD (UniProt D6RF44), the log2 fold change in experiment [4] is inactive: -0.04.
Take HELLS (UniProt Q9NRZ9): the log2 fold change was inactive: -0.138 in experiment [1], inactive: -0.029 in experiment [2], inactive: -0.068 in experiment [4] and inactive: 0.087 in experiment [3].
Turning to HMGXB3 (UniProt Q12766), the log2 fold change in experiment [3] is inactive: -0.045.
For HP1BP3 isoform 5 (UniProt Q5SSJ5), the figures for the log2 fold change in experiment [1] and in experiment [2] were inactive: 0.053 and inactive: 0.064, respectively.
With HERPUD1 (UniProt Q15011), the log2 fold change in experiment [5] was inactive: -0.064; in experiment [3], inactive: -0.183.
HEXIM2 (UniProt Q96MH2): the log2 fold change was inactive: 0.065 in experiment [1], inactive: -0.091 in experiment [2] and inactive: -0.149 in experiment [4].
Take HLA-E (UniProt P13747): the log2 fold change in experiment [1] is inactive: -0.086; in experiment [2] it was inactive: 0.109; in experiment [3], inactive: -0.029.
